Data from the supplement of paper PMC3545927.
The list shows a part of the results, in another mix than the full data.

Protein sequences, listed by entry. Tags and fused reporters are not part of them.
furin, P09958, UniProt P09958, whole entry: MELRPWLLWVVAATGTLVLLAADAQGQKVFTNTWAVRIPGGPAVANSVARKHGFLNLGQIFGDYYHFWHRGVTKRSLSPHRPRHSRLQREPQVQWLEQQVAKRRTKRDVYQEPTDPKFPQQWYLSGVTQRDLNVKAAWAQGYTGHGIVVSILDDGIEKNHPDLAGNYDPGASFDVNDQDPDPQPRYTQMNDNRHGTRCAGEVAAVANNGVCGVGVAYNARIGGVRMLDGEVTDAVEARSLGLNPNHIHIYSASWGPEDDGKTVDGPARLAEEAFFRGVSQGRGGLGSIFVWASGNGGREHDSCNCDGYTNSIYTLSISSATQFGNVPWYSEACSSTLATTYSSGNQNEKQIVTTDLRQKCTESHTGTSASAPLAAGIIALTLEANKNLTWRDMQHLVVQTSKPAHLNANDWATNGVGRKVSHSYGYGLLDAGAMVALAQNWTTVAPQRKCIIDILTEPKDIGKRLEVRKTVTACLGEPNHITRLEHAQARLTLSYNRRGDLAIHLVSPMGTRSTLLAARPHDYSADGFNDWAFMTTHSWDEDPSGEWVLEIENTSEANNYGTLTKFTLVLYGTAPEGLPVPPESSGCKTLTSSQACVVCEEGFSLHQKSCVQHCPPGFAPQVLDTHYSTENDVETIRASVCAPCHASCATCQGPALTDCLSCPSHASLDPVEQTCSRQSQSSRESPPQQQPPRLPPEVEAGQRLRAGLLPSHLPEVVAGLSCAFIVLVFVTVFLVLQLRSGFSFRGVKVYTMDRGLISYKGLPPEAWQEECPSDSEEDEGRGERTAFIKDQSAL

B1: HC1747 (peptide)
chain: CAMEECSQFLAGNASASA
B2: FS-583 (peptide)
chain: CACRRRRRRKAGNASASA
B3: FS-1241 (peptide)
chain: CAPKGRGKRRAGNASASA
B4: FS-1061 (peptide)
chain: CARGGRWRRSAGNASASA
B5: FS-640 (peptide)
chain: CAAHRRNKKDAGNASASA
B6: FS-2171 (peptide)
chain: CARQPRLVGAAGNASASA
B7: FS-2218 (peptide)
chain: CARKSRGTSTAGNASASA
B8: HC61 (peptide)
chain: CATTPCAGSWAGNASASA
B9: FS-651 (peptide)
chain: CAFHIRRKRYAGNASASA
B10: FU9 (peptide)
chain: CAFHIRRKRYAGNASASA
B11: FS-2229 (peptide)
chain: CARRKRLDWCAGNASASA

Molecular target: furin, P09958
Assay: furin cleavage Z-score vs untreated control; higher = more cleavage, active = 3.5 or more, inactive = 1 or less, 8 variable residues between constant flanks
Experimental: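 Multiplexed peptide-cDNA fusion cleavage assay. 8-mer variable peptides flanked by constant Cys-Ala (N-term) and Ala-Gly-Asn-Ala-Ser-Ala-Ser-Ala (C-term) and conjugated to a cDNA oligonucleotide were bead-immobilised via the N-terminus. They were treated with purified furin at a 1:10 enzyme:substrate ratio in 50 mM HEPES pH 7.5, 1 mM CaCl2, 100 mM NaCl for 7.5, 15 or 30 min. Released cDNA was counted by next-generation sequencing, and log counts versus no-furin controls were lowess-adjusted and converted to robust Z-scores.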

| Sequence | furin cleavage Z-score (7.5 min) | furin cleavage Z-score (15 min) | furin cleavage Z-score (30 min) |
| --- | --- | --- | --- |
| B1 | 2.24 | 1.37 | 1.18 |
| B2 | active: 7.53 | active: 8.14 | active: 6.13 |
| B3 | 3.48 | 3.42 | active: 4.16 |
| B4 | 3.18 | 1.83 | 1.47 |
| B5 | 2.22 | 1.01 | 2.02 |
| B6 | inactive: -0.691 | inactive: -0.656 | inactive: -0.39 |
| B7 | 1.5 | 2.63 | 2.68 |
| B8 | inactive: -1.21 | inactive: 0.988 | 1.04 |
| B9 | active: 11.7 | active: 12.5 | active: 10.9 |
| B10 | active: 11 | active: 12.5 | active: 11.3 |
| B11 | 2.36 | 2.5 | 3.01 |
